{"source": "paper PMC7819943", "about": "“Rice protein-binding microarrays: a tool to detect cis-acting elements near promoter regions in rice”", "note": "The list shows a part of the results."}
{"molecular_target": "T1, OsSMF1 (Oryza sativa, UniProt Q6ZLB0 1-436)", "T1 sequence": "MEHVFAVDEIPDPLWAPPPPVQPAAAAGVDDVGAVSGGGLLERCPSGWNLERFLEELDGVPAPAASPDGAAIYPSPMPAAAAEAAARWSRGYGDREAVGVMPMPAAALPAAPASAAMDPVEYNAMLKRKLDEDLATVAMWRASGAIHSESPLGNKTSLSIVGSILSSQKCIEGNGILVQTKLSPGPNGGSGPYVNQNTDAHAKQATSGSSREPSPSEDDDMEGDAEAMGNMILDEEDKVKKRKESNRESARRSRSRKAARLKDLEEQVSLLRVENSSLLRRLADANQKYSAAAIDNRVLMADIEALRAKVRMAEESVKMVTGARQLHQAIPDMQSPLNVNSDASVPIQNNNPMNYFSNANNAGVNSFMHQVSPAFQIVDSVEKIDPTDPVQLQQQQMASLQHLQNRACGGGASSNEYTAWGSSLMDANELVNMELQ", "test": "protein-binding microarray (RPBM); PBS, 2% BSA, 51.3 ng/ul salmon testes DNA, 50 uM zinc acetate, 200 nM TF, 25 C, 1 h; high values mean tight binding", "conditions": "protein: recombinant; tags: N-terminal polyhistidine and DsRed monomer fusion (pET32a); chain copies: 2; label: CyDye5-dUTP incorporated in the synthesized complementary strand; 3' TTTTT single-stranded linker to array surface; dsDNA, one strand shown", "in_short": "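The binding signal is fluorescence intensity per array feature (arbitrary units). Readings came from an Axon 4000B scanner after a washed, 2% BSA-blocked, double-stranded custom Agilent array had been incubated for 1 h at 25 °C with 200 nM protein and 50 µM zinc acetate. The protein was a Ni–NTA-purified transcription factor fused N-terminally to polyhistidine and DsRed, expressed in E. coli BL21-CodonPlus.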"}
{"sequence": "TTTTGGCACGAAGCAATGAAGCACGATGGGCCGTACGGCCCGGAGTCACCTAGTGCAG", "binding signal": "25500 fluorescence intensity (a.u.)"}
{"sequence": "TCCGTAGGAGTACTTGGCAGTTGGCTATACTCGCTTCATCCGGAGTCACCTAGTGCAG", "binding signal": "3300 fluorescence intensity (a.u.)"}
{"sequence": "CGTTGGACACGGATATCCACGATTGCACTTATTTTGAGACCGGAGTCACCTAGTGCAG", "binding signal": "3440 fluorescence intensity (a.u.)"}
{"sequence": "GTCCACCCGTTTATTGCATGTCAATTAGATGATTACGAAACGGAGTCACCTAGTGCAG", "binding signal": "3720 fluorescence intensity (a.u.)"}
{"sequence": "TGTACAATGCTCGCTGACAGGTGGGCCCACCACCACCACGCGGAGTCACCTAGTGCAG", "binding signal": "4100 fluorescence intensity (a.u.)"}
{"sequence": "CAAAGAAAATTCTGCATTGCATTCCCGTCGTCCGTTCTAACGGAGTCACCTAGTGCAG", "binding signal": "3880 fluorescence intensity (a.u.)"}
{"sequence": "AGATTTGCAATATATACTTACTGTCTTACTCACTGCATTTCGGAGTCACCTAGTGCAG", "binding signal": "3180 fluorescence intensity (a.u.)"}
{"sequence": "ACTCTACTCGGCGCGCGCGCGCGTCCCCATATCGTCACAACGGAGTCACCTAGTGCAG", "binding signal": "3250 fluorescence intensity (a.u.)"}
{"sequence": "TATTGAATGAATTAGCTATAGATGATTTGGAGGTAGGATTCGGAGTCACCTAGTGCAG", "binding signal": "3330 fluorescence intensity (a.u.)"}
{"sequence": "ATGAGTGTGAGTGTGGCATGCGTGCATGTGTAATAGTAAACGGAGTCACCTAGTGCAG", "binding signal": "3480 fluorescence intensity (a.u.)"}
{"sequence": "GCCGGATCCGCCACCATGCGCCTTGCCGCCGCACGGCCTTCGGAGTCACCTAGTGCAG", "binding signal": "3380 fluorescence intensity (a.u.)"}
{"sequence": "TACCATCGCACAACCAACAAGCTTACGTACCGTAGCTCACCGGAGTCACCTAGTGCAG", "binding signal": "3520 fluorescence intensity (a.u.)"}
{"sequence": "CCGGAAGAGGCCGGTGAGGAAGTCGAACAGCTGGGGCTCGCGGAGTCACCTAGTGCAG", "binding signal": "4830 fluorescence intensity (a.u.)"}
{"sequence": "GTTCGTGTCGATTTGACTGTGCGTGTCTCTTATGGAGTTTCGGAGTCACCTAGTGCAG", "binding signal": "3730 fluorescence intensity (a.u.)"}
{"sequence": "GCTGACACGCCGCTTCACCTCTCCACGTCTCCACGCCGTCCGGAGTCACCTAGTGCAG", "binding signal": "3910 fluorescence intensity (a.u.)"}
{"sequence": "TAGAACGAGCCGTTCACCGCCGTGACGCACGGGTGCATGCCGGAGTCACCTAGTGCAG", "binding signal": "4370 fluorescence intensity (a.u.)"}
{"sequence": "GGTGCGACGCGAGACGCCGCGCCACGCGTTGTTTCAGGGACGGAGTCACCTAGTGCAG", "binding signal": "4210 fluorescence intensity (a.u.)"}
{"sequence": "TGTGAGCACGGATCGACGATGAAAACAGACGAAGAACATTCGGAGTCACCTAGTGCAG", "binding signal": "27400 fluorescence intensity (a.u.)"}
{"sequence": "TTTAAATGCCTTCGTTACCTTTACTCCGAGTGACATTCATCGGAGTCACCTAGTGCAG", "binding signal": "3700 fluorescence intensity (a.u.)"}
{"sequence": "CGTCCCAAAATATAACCACGTAGGATAAAATGAGGCCTATCGGAGTCACCTAGTGCAG", "binding signal": "4310 fluorescence intensity (a.u.)"}
{"sequence": "GCCACACCTATCTCAATGACATGTGGGTCCACATGTGTCTCGGAGTCACCTAGTGCAG", "binding signal": "3400 fluorescence intensity (a.u.)"}
{"sequence": "ATTTTCGTGTGCAGTATATGTGTTCCCAACCCTGAGAGCCCGGAGTCACCTAGTGCAG", "binding signal": "3620 fluorescence intensity (a.u.)"}
{"sequence": "TCTATAAATATGATGTGGCTATGTACTCAGTACTCACCTGCGGAGTCACCTAGTGCAG", "binding signal": "6690 fluorescence intensity (a.u.)"}
{"sequence": "GTTCGCTTTTGTAAATAAAGATATGTGTTTGAGTCAGCTTCGGAGTCACCTAGTGCAG", "binding signal": "5340 fluorescence intensity (a.u.)"}
{"sequence": "TGGAGATGGCGGGGCTGTCCACGTGCAAGGGCCGGCGCGTCGGAGTCACCTAGTGCAG", "binding signal": "4350 fluorescence intensity (a.u.)"}
{"sequence": "TGTATTTCTGCATCACTTTCTATTTCATATTCTTCATTCCCGGAGTCACCTAGTGCAG", "binding signal": "3160 fluorescence intensity (a.u.)"}
{"sequence": "GCCACTGAATGTTCAGAGATGATTTGCAAATTGCAACCGCCGGAGTCACCTAGTGCAG", "binding signal": "27800 fluorescence intensity (a.u.)"}
{"sequence": "TGGATATGCATGCGTACGTACGTAGCTTACCTATAGCTAGCGGAGTCACCTAGTGCAG", "binding signal": "3500 fluorescence intensity (a.u.)"}
{"sequence": "AATAATCACAAATCTAGCCACGACAGTGACTTTGCACTTCCGGAGTCACCTAGTGCAG", "binding signal": "4150 fluorescence intensity (a.u.)"}
{"sequence": "GGCCCATGGAAGCCTATGCGGGCCCACGTGTTGGCCCGTGCGGAGTCACCTAGTGCAG", "binding signal": "5270 fluorescence intensity (a.u.)"}
{"sequence": "ACCATGAAGGATCATGGTTATGAACATCAATACATCATCACGGAGTCACCTAGTGCAG", "binding signal": "3460 fluorescence intensity (a.u.)"}
{"sequence": "CGAGTGACTAGCAGCACACGACAGTGACGTGGCGTCGTAGCGGAGTCACCTAGTGCAG", "binding signal": "24100 fluorescence intensity (a.u.)"}
{"sequence": "AGGTCGCTCCAAACTAATCCACCTCACCTCGTCCTCGTCGCGGAGTCACCTAGTGCAG", "binding signal": "4510 fluorescence intensity (a.u.)"}
{"sequence": "TCGACTCTGGAGTACGTAGCGACACGATCCCCGTCCATCGCGGAGTCACCTAGTGCAG", "binding signal": "3350 fluorescence intensity (a.u.)"}
{"sequence": "CCTGGACCAGGTCCACCAAGGCCCGCTCACACCGACAATTCGGAGTCACCTAGTGCAG", "binding signal": "28700 fluorescence intensity (a.u.)"}
{"sequence": "TAAAATCTAGATGCAATGAGTTATTTCATATGATTTGAAACGGAGTCACCTAGTGCAG", "binding signal": "17000 fluorescence intensity (a.u.)"}
{"sequence": "GGATTTGCAATATATTGGTGGCACTATGTGTGAGAGATTTCGGAGTCACCTAGTGCAG", "binding signal": "3750 fluorescence intensity (a.u.)"}
{"sequence": "TCCCGCTCACCACCACGCCACGTCACCGATCCGCGCAACCCGGAGTCACCTAGTGCAG", "binding signal": "22400 fluorescence intensity (a.u.)"}
{"sequence": "GCAAGTACACTTAAAACCTGTTAGTCATGAATAAAACTCTCGGAGTCACCTAGTGCAG", "binding signal": "4060 fluorescence intensity (a.u.)"}
{"sequence": "GCGGGCAGTGGGCGCGAGATCTCATCCGAGTGGGTGGGCGCGGAGTCACCTAGTGCAG", "binding signal": "3750 fluorescence intensity (a.u.)"}
{"sequence": "AAACTAATTATACAGATTACGTGTAAATTGCGAGACGAATCGGAGTCACCTAGTGCAG", "binding signal": "4120 fluorescence intensity (a.u.)"}
{"sequence": "GCAATCCCGATAAGGTGACTCGGACTCACACATCAACCCCCGGAGTCACCTAGTGCAG", "binding signal": "3570 fluorescence intensity (a.u.)"}
